Screening data, single-dose tests

Chains of the proteins cited; added tags and fusions are not shown. Residues count along the entry.
UniProt A4I591, 1-473: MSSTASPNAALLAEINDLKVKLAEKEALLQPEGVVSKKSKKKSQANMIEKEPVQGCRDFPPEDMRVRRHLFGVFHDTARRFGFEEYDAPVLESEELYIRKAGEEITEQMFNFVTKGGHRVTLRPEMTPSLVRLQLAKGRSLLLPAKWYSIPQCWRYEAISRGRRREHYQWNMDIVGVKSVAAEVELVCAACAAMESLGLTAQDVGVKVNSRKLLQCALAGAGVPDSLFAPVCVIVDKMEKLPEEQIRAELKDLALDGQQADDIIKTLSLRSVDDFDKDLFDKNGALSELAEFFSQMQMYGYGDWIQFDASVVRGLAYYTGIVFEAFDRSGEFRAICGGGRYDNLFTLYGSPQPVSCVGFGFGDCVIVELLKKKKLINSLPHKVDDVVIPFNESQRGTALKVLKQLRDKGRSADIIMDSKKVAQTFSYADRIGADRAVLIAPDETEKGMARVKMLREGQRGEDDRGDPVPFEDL
UniProt Q8IDJ8, 1-583: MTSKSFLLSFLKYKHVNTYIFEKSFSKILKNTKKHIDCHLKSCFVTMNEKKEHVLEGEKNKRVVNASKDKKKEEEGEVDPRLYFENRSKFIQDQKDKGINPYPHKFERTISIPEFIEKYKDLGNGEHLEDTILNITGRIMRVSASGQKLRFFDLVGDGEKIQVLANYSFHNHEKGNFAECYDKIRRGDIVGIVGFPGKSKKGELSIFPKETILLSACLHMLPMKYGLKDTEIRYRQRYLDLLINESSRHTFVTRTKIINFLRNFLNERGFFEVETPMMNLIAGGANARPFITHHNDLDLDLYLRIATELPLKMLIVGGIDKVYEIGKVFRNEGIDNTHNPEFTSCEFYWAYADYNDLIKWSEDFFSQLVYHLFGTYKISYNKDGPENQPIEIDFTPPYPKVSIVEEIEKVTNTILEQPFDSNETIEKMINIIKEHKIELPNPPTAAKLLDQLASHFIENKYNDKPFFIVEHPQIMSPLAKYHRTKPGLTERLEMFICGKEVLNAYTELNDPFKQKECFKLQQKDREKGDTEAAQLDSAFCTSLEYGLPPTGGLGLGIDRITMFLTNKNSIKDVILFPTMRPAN
UniProt Q4DA54, 1-478: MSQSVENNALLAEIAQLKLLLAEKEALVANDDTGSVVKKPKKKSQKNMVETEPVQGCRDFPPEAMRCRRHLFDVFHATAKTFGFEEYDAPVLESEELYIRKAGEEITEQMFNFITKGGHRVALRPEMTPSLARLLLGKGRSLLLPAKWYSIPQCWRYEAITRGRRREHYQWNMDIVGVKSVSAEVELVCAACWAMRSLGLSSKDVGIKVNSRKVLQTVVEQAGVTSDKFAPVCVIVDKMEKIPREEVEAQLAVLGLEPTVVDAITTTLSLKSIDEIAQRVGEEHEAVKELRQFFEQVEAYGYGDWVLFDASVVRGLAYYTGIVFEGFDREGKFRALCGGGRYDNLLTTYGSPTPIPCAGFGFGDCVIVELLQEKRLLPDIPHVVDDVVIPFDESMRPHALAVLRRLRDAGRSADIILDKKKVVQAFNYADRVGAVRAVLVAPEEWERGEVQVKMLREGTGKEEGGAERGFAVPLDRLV

Measurements from “University of Dundee, Small-Polar-MMV Screening Library” (2021), ChEMBL document CHEMBL3988442.

LiHisRS: 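Histidine-tRNA ligase, Leishmania infantum (UniProt A4I591). Enzyme assay of histidyl-tRNA synthetase; the read-out is not stated. Concentration: 30 µM. The record gives no direction; compounds that gave an IC50 in retests scored well above the rest, so higher reads as stronger inhibition. The assay is labelled LdHisRS but filed under L. infantum. Of about 69,000 compounds tested this way, about 410 (0.6%) reached 50% or more in at least one test.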
PfKRS1: 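Enzyme assay of the cytosolic lysyl-tRNA synthetase in 384-well plates, read by luminescence. Target: Lysine-tRNA ligase, Plasmodium falciparum 3D7 (UniProt Q8IDJ8). Concentration: 30 µM. Direction is inferred from only a few compounds that gave an IC50; most scored high, so higher reads as stronger inhibition. Size under these conditions: about 69,000 compounds, about 49 of them at 50% or above in at least one test.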
TcHisRS: 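Enzyme assay of histidyl-tRNA synthetase; the read-out is not stated. Target: Histidine-tRNA ligase, Trypanosoma cruzi CL Brener (UniProt Q4DA54). Compounds at 30 µM. The record gives no direction; compounds that gave an IC50 in retests scored well above the rest, so higher reads as stronger inhibition. Size under these conditions: about 69,000 compounds, about 31 of them at 50% or above in at least one test.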

The filed quantity is “Percent Effect” (%).
How 0% and 100% were set is not recorded. Most values in the screen are low, and negative values occur.
This is an unselected part of the compounds tested.

{"structure": "CSCCCN1CCc2nc(N(C)C)nc(N3CCC(O)CC3)c2C1", "LiHisRS": 14.75, "PfKRS1": 0.3671, "TcHisRS": 2.326}
{"structure": "CCOCc1nc2c(c(N3CC=CC3)n1)CCN(CC1CC1)CC2", "LiHisRS": 22.86, "PfKRS1": -3.666, "TcHisRS": 8.163}
{"structure": "Cc1cnn(C2CN(CC(=O)NCC3(c4ccccc4)CCC3)C2)c1", "LiHisRS": 21.88, "PfKRS1": 0.9407, "TcHisRS": 6.383}
{"structure": "COc1ccc(Oc2cccc(C#N)n2)cc1CN1CCCC1", "LiHisRS": 27.96, "PfKRS1": 1.777, "TcHisRS": 9.877}
{"structure": "NC(=O)COc1cccc(CN2CCc3cncnc3C2)c1", "LiHisRS": 30.91, "PfKRS1": -0.6327, "TcHisRS": 11.7}
{"structure": "Cc1cccc(CO[C@@H]2CC[C@H]3[C@H]2OCCN3Cc2cc(C)on2)n1", "LiHisRS": 22.22, "PfKRS1": 5.316, "TcHisRS": 8.458}
{"structure": "Cc1nn(C)c(C)c1C1CCCN1C(=O)c1ccc(N(C)C)nn1", "stereo": "stereo unspecified", "LiHisRS": 13.04, "PfKRS1": 1.675, "TcHisRS": 1.127}
{"structure": "CC(C)(C(=O)NCC(=O)NCc1ccccc1)c1ccccc1F", "LiHisRS": 17.7, "PfKRS1": 4.873, "TcHisRS": 3.509}
{"structure": "Cc1ccc(C(=O)NC(CN2CCCC2=O)c2ccccc2)c(=O)[nH]1", "stereo": "stereo unspecified", "LiHisRS": 17.31, "PfKRS1": 4.416, "TcHisRS": -2.479}
{"structure": "Cc1cc(C(=O)N2CCCC2)ccc1NS(C)(=O)=O", "LiHisRS": -13.6, "PfKRS1": -0.7476, "TcHisRS": -0.5025}
{"structure": "Cc1ccc(-c2ccc(C(=O)NCCS(N)(=O)=O)c(F)c2)cc1", "LiHisRS": 18.28, "PfKRS1": 7.2, "TcHisRS": 18.45}
{"structure": "CN(CCc1nc(-c2cccc(Cl)c2)no1)CCn1cccn1", "LiHisRS": 5.376, "PfKRS1": 2.595, "TcHisRS": 2.976}
{"structure": "CCc1ocnc1C(=O)N1CCC2(CC1)OCC(C)O2", "stereo": "stereo unspecified", "LiHisRS": 6.849, "PfKRS1": 3.571, "TcHisRS": 0.9852}
{"structure": "Cc1cccc(OCC(O)CN2CCC(c3ccn[nH]3)CC2)c1", "stereo": "stereo unspecified", "LiHisRS": 11.86, "PfKRS1": 0.9077, "TcHisRS": 6.857}
{"structure": "CC(C)(C)C(=O)N1C[C@H](c2ccsc2)[C@H]2CN(C3CCCCC3)CC[C@H]21", "LiHisRS": 25.53, "PfKRS1": 0.5187, "TcHisRS": 1.88}
{"structure": "COCCN1CCC2(CCCN(C(=O)c3cncn3C)C2)CC1", "LiHisRS": 5.128, "PfKRS1": -1.204, "TcHisRS": 6.135}
{"structure": "O=C(NCCc1ccccn1)[C@@H]1CC[C@@H]2[C@@H](CCN2Cc2ccoc2)O1", "LiHisRS": 13.89, "PfKRS1": 0.4167, "TcHisRS": 2.804}
{"structure": "Cc1cccc(-n2nc(CC(C)C)nc2CS(C)(=O)=O)c1", "LiHisRS": 19.35, "PfKRS1": 4.567, "TcHisRS": 1.235}
{"structure": "O=C1O[C@@H]2CN(Cc3ccccn3)C[C@@H]2N1CCCc1ccc(F)cc1", "LiHisRS": 24.66, "PfKRS1": -0.6876, "TcHisRS": 2.703}
{"structure": "Cc1cc(C2CCCN2Cc2ccc(S(=O)(=O)N(C)C)o2)on1", "stereo": "stereo unspecified", "LiHisRS": 18.75, "PfKRS1": -0.1553, "TcHisRS": 7.514}
{"structure": "C=C(C)CNC(=O)C1CCCN(C2CCN(C(C)C)CC2)C1", "stereo": "stereo unspecified", "LiHisRS": 0, "PfKRS1": 0.5369, "TcHisRS": 7.853}
{"structure": "COCCSc1ccc(-n2cccn2)nn1", "LiHisRS": 5.085, "PfKRS1": 0.1962, "TcHisRS": -12.2}
{"structure": "COc1ccc(NCc2c[nH]nc2-c2cccnc2)cc1", "LiHisRS": 9.091, "PfKRS1": 2.871, "TcHisRS": 6.404}
{"structure": "Cc1cc(=O)[nH]c(-n2nc(C)c(CCC(=O)Nc3nc(C)cs3)c2C)n1", "LiHisRS": -42.7, "PfKRS1": -7.245, "TcHisRS": 9.548}
{"structure": "Nc1nc(O)cc(N2CCC(c3cc(Cc4ccccc4)n[nH]3)CC2)n1", "LiHisRS": 24.78, "PfKRS1": 8.232, "TcHisRS": 0}
{"structure": "CCC(=O)NCC(=O)NCc1cc(Br)ccc1OC(F)F", "LiHisRS": 16.5, "PfKRS1": 3.96, "TcHisRS": -0.4149}
{"structure": "O=C(C1CC(F)(F)C1)N1C[C@@H]2CN(Cc3ccoc3)CCO[C@@H]2C1", "LiHisRS": 15.38, "PfKRS1": 3.134, "TcHisRS": 11.73}
{"structure": "O=C(C[C@@H]1COC[C@H]2CN(C3CCC3)C[C@@H]12)NCc1cccnc1", "LiHisRS": 17.31, "PfKRS1": 3.555, "TcHisRS": 9.497}
{"structure": "CN(C)c1ccc(C(=O)Nc2ccn(CCc3ccncc3)n2)cn1", "LiHisRS": 8.85, "PfKRS1": 5.933, "TcHisRS": 2.679}
{"structure": "COc1ccc(CC(=O)N(C)C2CCN(C)C2=O)cc1F", "stereo": "stereo unspecified", "LiHisRS": 13.7, "PfKRS1": 5.362, "TcHisRS": 2.186}
{"structure": "Cc1ccc(CN2CCCC23Cc2ccccc2CNC3=O)cc1", "stereo": "stereo unspecified", "LiHisRS": 16.55, "PfKRS1": -0.9104, "TcHisRS": 11.24}
{"structure": "CC(C)c1cc(C(=O)NCC2CCCN(C(C)C)C2)n(C)n1", "stereo": "stereo unspecified", "LiHisRS": 11.35, "PfKRS1": 5.339, "TcHisRS": 4.135}
{"structure": "CCc1c(C)nn(CCNC(=O)c2cc(C3CC3)n[nH]2)c1C", "LiHisRS": 5.479, "PfKRS1": 7.236, "TcHisRS": 2.703}
{"structure": "CNc1ccnc(N2C[C@@H](C)[C@](O)(C3CCC3)C2)n1", "LiHisRS": 3.03, "PfKRS1": -2.621, "TcHisRS": 4.516}
{"structure": "Cc1cc(Nc2ccccn2)nc(C2CCCN(CCO)C2)n1", "stereo": "stereo unspecified", "LiHisRS": 7.092, "PfKRS1": -0.1068, "TcHisRS": 4.135}
{"structure": "CNC(=O)CCN1CCN(C(C)c2ccc(Cl)cc2)CC1", "stereo": "stereo unspecified", "LiHisRS": 12.9, "PfKRS1": -0.5932, "TcHisRS": 5.155}
{"structure": "CCNC(=O)NCCc1csc(N2CCCC2)n1", "LiHisRS": 18.75, "PfKRS1": 6.13, "TcHisRS": 16.67}
{"structure": "CN(CC(N)=O)C(=O)c1cn(-c2ccc(Br)cc2)cn1", "LiHisRS": 30.14, "PfKRS1": -0.4733, "TcHisRS": 1.053}
{"structure": "Cc1cc(C)n(CC2CCCCN2CCCS(=O)(=O)N(C)C)n1", "stereo": "stereo unspecified", "LiHisRS": 3.226, "PfKRS1": 0.2058, "TcHisRS": 5.155}

2 of the entries, repeated:

structure	LiHisRS	PfKRS1	TcHisRS
COc1ccc(CC(=O)N(C)C2CCN(C)C2=O)cc1F (stereo unspecified)	13.7%	5.362%	2.186%
CCOCc1nc2c(c(N3CC=CC3)n1)CCN(CC1CC1)CC2	22.86%	-3.666%	8.163%